± gives the standard deviation of the averaged measurements. Values are relative to the signal before dosing, not to a vehicle control; the signal also falls without drug.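 Labels refer to human fibroblasts, largely primary: uterine (C12385, HUF), lung (H6013), bone (Hs27A), adrenal (HADF), skin (WS1), plus mammary HMF and breast cancer-associated Hs343T. Cancer lines are basal-like or mesenchymal-like triple-negative breast cancer. The paper counts as hits responses shifting over 3x the replicate standard deviation. The tissue of the other fibroblasts is not given here.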
Test system: MDAMB231
Assay: relative JC-1 red fluorescence (viability) vs pre-drug, coculture with fibroblast (fraction); higher = more viable cancer cells
Experimental: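 JC-1 labelled TNBC cells cocultured 1:1 (1,500 cells each) with CellTrace Violet stained primary or stromal fibroblasts in 384-well plates in FluoroBrite medium, treated with one of 42 anticancer drugs at 0.1, 1, 10 or 100 uM. JC-1 red fluorescence (mitochondrial integrity in cancer cells only) was read by plate reader every 8 h for 72 h. Values are normalised to each well's pre-drug value. The stock of one drug was tenfold lower, so its dose labels may be too high.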

O=C(O)C(=O)O.[NH-][C@@H]1CCCC[C@H]1[NH-].[Pt+2] [Oxaliplatin]
relative JC-1 red fluorescence
Details | 8 h | 16 h | 24 h | 32 h | 40 h | 48 h | 56 h | 64 h | 72 h
0.1 µM, coculture fibroblast: C12385 | 0.79 ± 0.0076 | 0.7254 ± 0.0047 | 0.805 ± 0.032 | 0.684 ± 0.026 | 0.638 ± 0.024 | 0.64 ± 0.027 | 0.612 ± 0.03 | 0.648 ± 0.03 | 0.644 ± 0.031
0.1 µM, coculture fibroblast: H6013 | 0.897 ± 0.011 | 0.861 ± 0.036 | 0.844 ± 0.017 | 0.834 ± 0.03 | 0.811 ± 0.042 | 0.828 ± 0.056 | 0.811 ± 0.054 | 0.804 ± 0.051 | 0.761 ± 0.056
0.1 µM, coculture fibroblast: H6019 | 0.7713 ± 0.00094 | 0.6925 ± 0.006 | 0.739 ± 0.025 | 0.673 ± 0.03 | 0.633 ± 0.026 | 0.644 ± 0.026 | 0.595 ± 0.041 | 0.612 ± 0.015 | 0.583 ± 0.021
0.1 µM, coculture fibroblast: H6076 | 0.835 ± 0.052 | 0.752 ± 0.032 | 0.701 ± 0.011 | 0.675 ± 0.011 | 0.664 ± 0.017 | 0.635 ± 0.03 | 0.633 ± 0.039 | 0.634 ± 0.049 | 0.639 ± 0.048
0.1 µM, coculture fibroblast: H6231 | 0.893 ± 0.074 | 0.824 ± 0.055 | 0.753 ± 0.031 | 0.705 ± 0.013 | 0.6608 ± 0.0058 | 0.631 ± 0.018 | 0.596 ± 0.029 | 0.587 ± 0.051 | 0.572 ± 0.06
0.1 µM, coculture fibroblast: HADF | 0.8675 ± 0.007 | 0.83 ± 0.0087 | 0.796 ± 0.015 | 0.76089 ± 0.0001 | 0.72799 ± 0.00067 | 0.725 ± 0.013 | 0.706 ± 0.0074 | 0.7035 ± 0.0044 | 0.67 ± 0.012
0.1 µM, coculture fibroblast: HCFa | 0.908 ± 0.01 | 0.875 ± 0.0099 | 0.848 ± 0.012 | 0.8277 ± 0.0014 | 0.7912 ± 0.0066 | 0.746 ± 0.0078 | 0.727 ± 0.0032 | 0.6986 ± 0.0017 | 0.643 ± 0.011
0.1 µM, coculture fibroblast: HCPF | 0.853 ± 0.014 | 0.784 ± 0.027 | 0.74 ± 0.024 | 0.719 ± 0.033 | 0.673 ± 0.043 | 0.638 ± 0.044 | 0.609 ± 0.033 | 0.589 ± 0.032 | 0.57 ± 0.027
0.1 µM, coculture fibroblast: HHSteC | 0.891 ± 0.01 | 0.852 ± 0.009 | 0.806 ± 0.011 | 0.765 ± 0.01 | 0.7328 ± 0.0029 | 0.717 ± 0.0037 | 0.66884 ± 0.00036 | 0.663 ± 0.023 | 0.626 ± 0.013
0.1 µM, coculture fibroblast: HMF | 0.8279 ± 0.0024 | 0.748 ± 0.017 | 0.7058 ± 0.0028 | 0.6674 ± 0.0021 | 0.633 ± 0.0039 | 0.6045 ± 0.0059 | 0.589 ± 0.015 | 0.578 ± 0.021 | 0.577 ± 0.035
0.1 µM, coculture fibroblast: HPFa | 0.915 ± 0.027 | 0.8861 ± 0.0086 | 0.835 ± 0.0086 | 0.787 ± 0.014 | 0.761 ± 0.0057 | 0.735 ± 0.011 | 0.6793 ± 0.0041 | 0.649 ± 0.0092 | 0.595 ± 0.011
0.1 µM, coculture fibroblast: HUF | 0.803 ± 0.016 | 0.697 ± 0.015 | 0.7277 ± 0.0067 | 0.591 ± 0.029 | 0.543 ± 0.016 | 0.534 ± 0.018 | 0.496 ± 0.011 | 0.511 ± 0.015 | 0.504 ± 0.022
0.1 µM, coculture fibroblast: Hs5 | 0.8201 ± 0.001 | 0.772 ± 0.0078 | 0.7385 ± 0.0059 | 0.705 ± 0.011 | 0.684 ± 0.014 | 0.631 ± 0.0088 | 0.6098 ± 0.0016 | 0.595 ± 0.011 | 0.575 ± 0.0071
0.1 µM, coculture fibroblast: Hs27A | 0.864 ± 0.01 | 0.8286 ± 0.0033 | 0.792 ± 0.02 | 0.769 ± 0.024 | 0.729 ± 0.024 | 0.707 ± 0.024 | 0.69 ± 0.033 | 0.674 ± 0.033 | 0.625 ± 0.034
0.1 µM, coculture fibroblast: Hs343T | 0.811 ± 0.034 | 0.732 ± 0.041 | 0.667 ± 0.043 | 0.638 ± 0.043 | 0.6 ± 0.049 | 0.559 ± 0.048 | 0.538 ± 0.034 | 0.523 ± 0.024 | 0.513 ± 0.017
0.1 µM, coculture fibroblast: WS1 | 0.7581 ± 0.0013 | 0.6822 ± 0.0066 | 0.71 ± 0.024 | 0.629 ± 0.026 | 0.587 ± 0.019 | 0.587 ± 0.027 | 0.557 ± 0.024 | 0.566 ± 0.026 | 0.558 ± 0.016
1 µM, coculture fibroblast: C12385 | 0.744 ± 0.028 | 0.7066 ± 0.0038 | 0.597 ± 0.04 | 0.579 ± 0.036 | 0.507 ± 0.052 | 0.474 ± 0.052 | 0.431 ± 0.054 | 0.421 ± 0.06 | 0.397 ± 0.068
1 µM, coculture fibroblast: H6013 | 0.884 ± 0.024 | 0.8067 ± 0.0071 | 0.7687 ± 0.0019 | 0.73 ± 0.0097 | 0.681 ± 0.0094 | 0.6354 ± 0.0031 | 0.616 ± 0.0084 | 0.579 ± 0.011 | 0.5405 ± 0.0027
1 µM, coculture fibroblast: H6019 | 0.768 ± 0.03 | 0.679 ± 0.075 | 0.632 ± 0.064 | 0.623 ± 0.094 | 0.581 ± 0.092 | 0.565 ± 0.098 | 0.525 ± 0.1 | 0.509 ± 0.1 | 0.474 ± 0.1
1 µM, coculture fibroblast: H6076 | 0.896 ± 0.024 | 0.8 ± 0.015 | 0.761 ± 0.035 | 0.734 ± 0.043 | 0.703 ± 0.061 | 0.669 ± 0.071 | 0.641 ± 0.086 | 0.624 ± 0.1 | 0.617 ± 0.11
1 µM, coculture fibroblast: H6231 | 0.859 ± 0.1 | 0.918 ± 0.12 | 0.879 ± 0.13 | 0.82 ± 0.15 | 0.787 ± 0.18 | 0.762 ± 0.21 | 0.753 ± 0.26 | 0.737 ± 0.28 | 0.727 ± 0.3
1 µM, coculture fibroblast: HADF | 0.8901 ± 0.0025 | 0.817 ± 0.022 | 0.772 ± 0.021 | 0.721 ± 0.035 | 0.686 ± 0.049 | 0.634 ± 0.057 | 0.613 ± 0.045 | 0.589 ± 0.045 | 0.533 ± 0.041
1 µM, coculture fibroblast: HCFa | 0.895 ± 0.013 | 0.83116 ± 0.00035 | 0.794 ± 0.0097 | 0.7586 ± 0.0033 | 0.7227 ± 0.0018 | 0.6784 ± 0.0026 | 0.6454 ± 0.0054 | 0.615 ± 0.0064 | 0.56 ± 0.015
1 µM, coculture fibroblast: HCPF | 0.916 ± 0.02 | 0.786 ± 0.029 | 0.684 ± 0.019 | 0.627 ± 0.017 | 0.5632 ± 0.0018 | 0.5098 ± 0.0017 | 0.458 ± 0.0056 | 0.435 ± 0.0011 | 0.41 ± 0.012
1 µM, coculture fibroblast: HHSteC | 0.928 ± 0.043 | 0.874 ± 0.041 | 0.817 ± 0.036 | 0.772 ± 0.035 | 0.72 ± 0.012 | 0.678 ± 0.016 | 0.63 ± 0.016 | 0.608 ± 0.0071 | 0.56235 ± 0.00042
1 µM, coculture fibroblast: HMF | 0.862 ± 0.056 | 0.741 ± 0.052 | 0.663 ± 0.044 | 0.617 ± 0.039 | 0.564 ± 0.038 | 0.519 ± 0.038 | 0.479 ± 0.042 | 0.457 ± 0.031 | 0.434 ± 0.026
1 µM, coculture fibroblast: HPFa | 0.9302 ± 0.0023 | 0.87619 ± 0.00036 | 0.7974 ± 0.001 | 0.7416 ± 0.0033 | 0.693 ± 0.018 | 0.65 ± 0.016 | 0.591 ± 0.016 | 0.5537 ± 0.0049 | 0.4965 ± 0.00091
1 µM, coculture fibroblast: HUF | 0.862 ± 0.014 | 0.728 ± 0.046 | 0.788 ± 0.028 | 0.665 ± 0.049 | 0.615 ± 0.032 | 0.598 ± 0.02 | 0.546 ± 0.02 | 0.551 ± 0.013 | 0.538 ± 0.0094
1 µM, coculture fibroblast: Hs5 | 0.926 ± 0.038 | 0.824 ± 0.037 | 0.755 ± 0.038 | 0.703 ± 0.027 | 0.654 ± 0.026 | 0.597 ± 0.021 | 0.555 ± 0.02 | 0.523 ± 0.018 | 0.499 ± 0.012
1 µM, coculture fibroblast: Hs27A | 0.8893 ± 0.0032 | 0.84054 ± 0.00047 | 0.778 ± 0.0096 | 0.756 ± 0.02 | 0.7 ± 0.032 | 0.623 ± 0.044 | 0.634 ± 0.047 | 0.604 ± 0.052 | 0.548 ± 0.048
1 µM, coculture fibroblast: Hs343T | 0.903 ± 0.055 | 0.791 ± 0.056 | 0.709 ± 0.075 | 0.678 ± 0.086 | 0.625 ± 0.092 | 0.584 ± 0.11 | 0.541 ± 0.12 | 0.519 ± 0.12 | 0.497 ± 0.13
1 µM, coculture fibroblast: WS1 | 0.741 ± 0.018 | 0.674 ± 0.021 | 0.553 ± 0.015 | 0.54434 ± 0.00027 | 0.49 ± 0.0055 | 0.452 ± 0.0061 | 0.3966 ± 0.0024 | 0.3853 ± 0.00054 | 0.363 ± 0.0047

— the supplement of paper PMC6078165
